For the experiment, the target named is T7-tagged SRSF1 (human) (UniProt Q07955). The experiment can be described thus: affinity purification with mass spectrometry; T7-tagged bait induced with doxycycline in HeLa cells; lysate treated with nuclease (1 U/mL RNase A, 40 U/mL RNase T1, 500 U/mL Benzonase, 2 mM MgCl2) for 30 min before immunoprecipitation on Dynabeads Protein G, 1 h at 4 °C; on-bead digestion, MudPIT LTQ MS; enrichment against uninduced (Dox-) cells.

Amino acid sequences for entries named in this document (tags omitted).
UniProt Q07955: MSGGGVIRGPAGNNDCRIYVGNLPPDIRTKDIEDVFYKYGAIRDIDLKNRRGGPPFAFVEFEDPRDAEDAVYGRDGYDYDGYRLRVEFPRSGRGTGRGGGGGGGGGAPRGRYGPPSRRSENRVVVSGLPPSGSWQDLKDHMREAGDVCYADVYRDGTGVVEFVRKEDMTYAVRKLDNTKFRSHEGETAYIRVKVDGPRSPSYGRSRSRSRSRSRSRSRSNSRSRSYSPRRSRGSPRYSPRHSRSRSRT
UniProt O75533: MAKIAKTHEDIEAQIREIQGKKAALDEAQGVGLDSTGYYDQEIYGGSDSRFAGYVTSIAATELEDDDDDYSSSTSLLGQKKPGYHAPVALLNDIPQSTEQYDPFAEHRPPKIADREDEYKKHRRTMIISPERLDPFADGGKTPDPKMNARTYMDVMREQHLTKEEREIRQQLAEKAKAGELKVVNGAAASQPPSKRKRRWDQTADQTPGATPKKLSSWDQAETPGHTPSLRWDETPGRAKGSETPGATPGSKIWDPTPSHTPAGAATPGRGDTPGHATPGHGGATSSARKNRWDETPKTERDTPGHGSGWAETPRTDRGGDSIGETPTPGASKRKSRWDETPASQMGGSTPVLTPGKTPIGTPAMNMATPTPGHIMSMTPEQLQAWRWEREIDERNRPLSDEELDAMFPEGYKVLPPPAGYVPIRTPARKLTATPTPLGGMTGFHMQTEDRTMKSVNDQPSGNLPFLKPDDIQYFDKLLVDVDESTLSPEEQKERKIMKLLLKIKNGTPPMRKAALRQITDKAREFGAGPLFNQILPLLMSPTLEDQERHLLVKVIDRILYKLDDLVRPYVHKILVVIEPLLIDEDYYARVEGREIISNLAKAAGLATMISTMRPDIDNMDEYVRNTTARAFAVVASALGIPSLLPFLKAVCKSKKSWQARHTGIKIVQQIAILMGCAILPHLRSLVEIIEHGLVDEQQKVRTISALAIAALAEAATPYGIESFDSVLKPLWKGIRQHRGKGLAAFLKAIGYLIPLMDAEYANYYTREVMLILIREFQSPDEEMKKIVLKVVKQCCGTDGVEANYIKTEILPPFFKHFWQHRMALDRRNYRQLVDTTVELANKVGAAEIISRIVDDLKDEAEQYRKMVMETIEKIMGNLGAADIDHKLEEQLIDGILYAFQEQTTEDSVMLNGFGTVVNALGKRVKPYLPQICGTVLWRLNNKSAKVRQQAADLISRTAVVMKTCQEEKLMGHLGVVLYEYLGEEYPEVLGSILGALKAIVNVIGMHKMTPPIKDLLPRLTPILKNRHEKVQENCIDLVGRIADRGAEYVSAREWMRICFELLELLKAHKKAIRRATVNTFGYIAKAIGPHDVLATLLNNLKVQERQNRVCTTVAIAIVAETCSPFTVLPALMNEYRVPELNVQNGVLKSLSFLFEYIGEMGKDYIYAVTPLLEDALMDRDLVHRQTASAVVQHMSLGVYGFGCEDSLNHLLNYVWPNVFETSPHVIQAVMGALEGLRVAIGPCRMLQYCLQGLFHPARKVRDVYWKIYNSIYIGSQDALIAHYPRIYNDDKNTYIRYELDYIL
UniProt Q13435: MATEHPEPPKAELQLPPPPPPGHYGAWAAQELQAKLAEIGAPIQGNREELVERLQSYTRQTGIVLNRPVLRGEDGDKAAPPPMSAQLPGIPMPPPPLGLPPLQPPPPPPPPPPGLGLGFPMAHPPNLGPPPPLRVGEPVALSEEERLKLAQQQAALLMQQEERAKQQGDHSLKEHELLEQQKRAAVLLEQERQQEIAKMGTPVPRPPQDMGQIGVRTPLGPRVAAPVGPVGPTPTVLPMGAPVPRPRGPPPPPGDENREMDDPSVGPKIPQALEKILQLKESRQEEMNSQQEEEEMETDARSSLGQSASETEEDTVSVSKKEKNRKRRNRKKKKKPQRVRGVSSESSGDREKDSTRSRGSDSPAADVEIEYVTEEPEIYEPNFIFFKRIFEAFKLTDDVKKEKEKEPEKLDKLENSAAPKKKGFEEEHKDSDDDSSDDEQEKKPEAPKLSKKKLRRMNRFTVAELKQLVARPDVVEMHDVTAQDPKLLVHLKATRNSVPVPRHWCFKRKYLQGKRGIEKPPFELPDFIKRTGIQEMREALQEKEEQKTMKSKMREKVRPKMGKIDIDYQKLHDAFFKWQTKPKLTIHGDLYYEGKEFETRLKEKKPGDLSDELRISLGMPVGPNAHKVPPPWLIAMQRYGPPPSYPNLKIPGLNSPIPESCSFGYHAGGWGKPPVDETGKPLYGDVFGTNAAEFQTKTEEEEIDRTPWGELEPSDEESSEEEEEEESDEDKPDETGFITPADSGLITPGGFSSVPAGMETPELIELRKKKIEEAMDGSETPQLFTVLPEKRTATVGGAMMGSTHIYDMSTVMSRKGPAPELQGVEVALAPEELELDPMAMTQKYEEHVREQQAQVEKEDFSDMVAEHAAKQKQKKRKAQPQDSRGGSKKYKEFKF

The values that follow come from paper PMC4502471.

No constants are given. Whether binding was seen depends on the method and setting. Binding seen in cells or lysates may run through a third protein. These calls come from enrichment with a bait or labelling near it, and not all partners need be listed.

Consider SF3B1 (from UniProt O75533 1-1304), for which the binding result is “binds”. For SF3B2 (from UniProt Q13435 1-895) the value was “binds”.
